{"sequences": {"note": "By UniProt entry, the sequences of proteins in these tests, tags left out.", "UniProt O43524": "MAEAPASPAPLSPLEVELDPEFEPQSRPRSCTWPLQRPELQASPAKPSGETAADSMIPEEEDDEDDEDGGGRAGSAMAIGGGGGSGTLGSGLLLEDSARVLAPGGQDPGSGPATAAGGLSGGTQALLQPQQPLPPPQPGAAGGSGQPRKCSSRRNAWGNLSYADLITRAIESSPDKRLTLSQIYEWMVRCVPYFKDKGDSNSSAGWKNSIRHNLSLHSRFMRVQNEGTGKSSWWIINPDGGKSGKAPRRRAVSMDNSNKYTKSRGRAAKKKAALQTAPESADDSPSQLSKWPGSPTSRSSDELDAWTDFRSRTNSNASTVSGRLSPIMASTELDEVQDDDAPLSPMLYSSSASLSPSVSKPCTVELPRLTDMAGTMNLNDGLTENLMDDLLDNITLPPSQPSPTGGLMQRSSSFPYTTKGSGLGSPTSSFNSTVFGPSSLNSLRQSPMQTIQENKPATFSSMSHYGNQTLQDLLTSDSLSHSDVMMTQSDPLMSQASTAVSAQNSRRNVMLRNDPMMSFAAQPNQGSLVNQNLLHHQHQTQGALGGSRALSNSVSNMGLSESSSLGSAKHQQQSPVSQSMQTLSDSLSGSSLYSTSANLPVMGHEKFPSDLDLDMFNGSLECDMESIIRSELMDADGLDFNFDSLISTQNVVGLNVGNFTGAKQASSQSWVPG", "UniProt Q6STE5": "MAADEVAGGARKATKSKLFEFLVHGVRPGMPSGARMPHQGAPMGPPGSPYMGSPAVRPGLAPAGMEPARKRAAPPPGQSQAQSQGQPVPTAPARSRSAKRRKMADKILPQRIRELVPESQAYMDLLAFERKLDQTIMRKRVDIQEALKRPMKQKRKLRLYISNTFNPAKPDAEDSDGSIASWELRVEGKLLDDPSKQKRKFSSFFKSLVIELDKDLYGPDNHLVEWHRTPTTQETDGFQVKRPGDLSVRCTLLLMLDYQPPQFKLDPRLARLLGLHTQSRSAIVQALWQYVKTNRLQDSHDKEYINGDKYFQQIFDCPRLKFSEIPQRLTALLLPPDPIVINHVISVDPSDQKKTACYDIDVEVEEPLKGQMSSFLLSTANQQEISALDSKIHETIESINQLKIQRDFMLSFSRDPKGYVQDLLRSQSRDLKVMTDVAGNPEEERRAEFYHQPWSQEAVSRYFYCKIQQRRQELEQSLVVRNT", "UniProt Q09472": "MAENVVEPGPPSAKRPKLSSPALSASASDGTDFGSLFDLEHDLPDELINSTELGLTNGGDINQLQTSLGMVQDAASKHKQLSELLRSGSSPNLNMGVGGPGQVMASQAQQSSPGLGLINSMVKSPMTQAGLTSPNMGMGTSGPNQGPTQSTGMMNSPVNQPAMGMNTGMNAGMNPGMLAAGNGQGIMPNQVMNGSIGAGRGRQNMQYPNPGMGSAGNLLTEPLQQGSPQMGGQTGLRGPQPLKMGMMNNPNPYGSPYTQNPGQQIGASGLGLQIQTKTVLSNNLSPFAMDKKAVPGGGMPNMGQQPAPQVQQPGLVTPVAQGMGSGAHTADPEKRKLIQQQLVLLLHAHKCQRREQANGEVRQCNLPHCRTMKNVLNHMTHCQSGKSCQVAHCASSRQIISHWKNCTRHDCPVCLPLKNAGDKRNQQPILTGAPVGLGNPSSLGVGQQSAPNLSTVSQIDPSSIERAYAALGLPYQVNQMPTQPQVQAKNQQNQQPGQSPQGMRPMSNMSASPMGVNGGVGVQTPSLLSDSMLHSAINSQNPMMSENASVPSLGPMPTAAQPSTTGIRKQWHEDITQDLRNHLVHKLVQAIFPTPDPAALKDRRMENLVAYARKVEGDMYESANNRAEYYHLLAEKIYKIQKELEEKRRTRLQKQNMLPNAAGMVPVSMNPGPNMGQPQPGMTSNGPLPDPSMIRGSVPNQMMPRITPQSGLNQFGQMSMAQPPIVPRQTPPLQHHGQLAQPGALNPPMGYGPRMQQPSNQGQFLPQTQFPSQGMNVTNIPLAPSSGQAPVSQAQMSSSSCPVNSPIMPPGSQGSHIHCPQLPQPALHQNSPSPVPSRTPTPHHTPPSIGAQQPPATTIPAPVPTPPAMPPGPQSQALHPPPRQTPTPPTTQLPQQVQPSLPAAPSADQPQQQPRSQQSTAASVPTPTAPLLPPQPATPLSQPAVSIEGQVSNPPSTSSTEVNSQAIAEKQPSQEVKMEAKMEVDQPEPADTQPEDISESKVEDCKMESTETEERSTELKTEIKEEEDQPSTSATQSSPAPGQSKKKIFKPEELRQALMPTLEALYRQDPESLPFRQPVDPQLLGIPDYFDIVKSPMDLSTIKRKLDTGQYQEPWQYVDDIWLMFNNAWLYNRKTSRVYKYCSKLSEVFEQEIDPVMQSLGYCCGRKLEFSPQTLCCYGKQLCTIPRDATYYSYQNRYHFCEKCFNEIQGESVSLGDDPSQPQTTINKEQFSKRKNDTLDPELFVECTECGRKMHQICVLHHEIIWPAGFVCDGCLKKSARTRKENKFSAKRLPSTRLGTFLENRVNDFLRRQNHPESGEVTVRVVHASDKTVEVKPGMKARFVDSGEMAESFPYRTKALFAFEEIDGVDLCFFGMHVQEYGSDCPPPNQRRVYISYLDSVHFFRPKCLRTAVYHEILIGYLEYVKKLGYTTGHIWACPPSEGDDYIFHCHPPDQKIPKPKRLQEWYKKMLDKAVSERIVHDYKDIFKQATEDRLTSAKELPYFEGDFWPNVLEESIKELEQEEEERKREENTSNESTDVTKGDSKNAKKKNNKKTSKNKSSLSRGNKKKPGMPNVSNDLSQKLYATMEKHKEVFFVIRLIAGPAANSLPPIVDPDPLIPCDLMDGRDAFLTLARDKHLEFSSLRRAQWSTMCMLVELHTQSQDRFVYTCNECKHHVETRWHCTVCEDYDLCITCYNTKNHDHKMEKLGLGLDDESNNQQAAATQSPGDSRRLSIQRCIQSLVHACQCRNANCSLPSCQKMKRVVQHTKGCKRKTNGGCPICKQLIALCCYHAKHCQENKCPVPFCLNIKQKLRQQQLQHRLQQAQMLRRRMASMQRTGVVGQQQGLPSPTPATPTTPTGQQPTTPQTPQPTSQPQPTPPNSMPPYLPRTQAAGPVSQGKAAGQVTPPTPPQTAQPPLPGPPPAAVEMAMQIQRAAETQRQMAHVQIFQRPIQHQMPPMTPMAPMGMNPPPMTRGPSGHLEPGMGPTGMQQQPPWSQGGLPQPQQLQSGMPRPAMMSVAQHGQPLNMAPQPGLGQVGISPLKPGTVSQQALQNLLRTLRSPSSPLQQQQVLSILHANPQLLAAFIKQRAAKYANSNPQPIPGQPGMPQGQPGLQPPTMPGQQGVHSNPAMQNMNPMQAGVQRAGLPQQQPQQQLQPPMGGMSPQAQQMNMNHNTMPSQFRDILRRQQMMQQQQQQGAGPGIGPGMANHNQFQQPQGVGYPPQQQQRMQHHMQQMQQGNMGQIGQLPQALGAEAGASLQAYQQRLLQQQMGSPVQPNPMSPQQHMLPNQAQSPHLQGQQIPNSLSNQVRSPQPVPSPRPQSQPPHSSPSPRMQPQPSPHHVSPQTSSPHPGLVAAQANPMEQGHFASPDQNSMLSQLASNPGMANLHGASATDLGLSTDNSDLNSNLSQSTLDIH"}, "source": "paper PMC8965495", "key": {"[1]": {"biological_target": "FOXO3 (human (endogenous in MDA-MB-231)) (UniProt O43524)", "assay": "co-IP; as a1, but nuclear protein lysate of MDA-MB-231 A2BR knockdown subclone treated with vehicle or 10 nM paclitaxel for 72 h; IP with FOXO3 antibody; immunoblot"}, "[2]": {"biological_target": "FOXO3 (human (endogenous in MDA-MB-231)) (UniProt O43524)", "assay": "co-IP; 500 ug nuclear protein lysate of MDA-MB-231 NTC subclone treated with vehicle or 10 nM paclitaxel for 72 h; IP with FOXO3 antibody or control IgG, protein G-Sepharose, 4 C overnight; immunoblot"}, "[3]": {"biological_target": "chromatin remodeling factor SMARCD3 (human (endogenous in MDA-MB-231)) (UniProt Q6STE5)", "assay": "co-IP; 500 ug nuclear protein lysate of MDA-MB-231 NTC or A2BR knockdown subclones treated with vehicle or 10 nM paclitaxel for 72 h; IP with SMARCD3 antibody or control IgG, protein G-Sepharose, 4 C overnight; immunoblot"}}, "note": "No constants are given. Whether binding was seen depends on the method and setting. In cells and extracts the contact can be indirect. Some entries that bind do so weakly or less than the wild type.", "data": [{"substance": "histone acetyltransferase p300 (from UniProt Q09472 1-2414) (enzyme)", "values": [{"measurement": "binding", "setting": "[1]", "value": "no binding (condition: in the A2BR knockdown subclone)"}, {"measurement": "binding", "setting": "[2]", "value": "binds"}, {"measurement": "binding", "setting": "[3]", "value": "binds"}]}]}
